Reference: PubChem BioAssay (NCATS)
This list was built around the results that the source calls inconclusive (neither active nor inactive); the mix of calls is not that of the screen. For some assays here: Potencies beside an inconclusive call are fits to weak or partial responses and may not hold up. For some assays here: “Side channel” marks fits to a control or component signal instead of the main read-out. The source made the active and inactive calls. Unless noted, calls follow the shape of the dose curve; as a rule, active = well fitted curve in the direction sought with a large enough effect; inconclusive = small, poorly fitted or top-dose-only effect, or another doubt; inactive = no such curve, though single readings can be large; an effect the other way counts as inactive or inconclusive.

The chains behind the UniProt entries cited, without tags or fusion partners. Where a name states a change or a piece, a line headed by the entry shows the natural chain unless it says otherwise.
UniProt Q03181: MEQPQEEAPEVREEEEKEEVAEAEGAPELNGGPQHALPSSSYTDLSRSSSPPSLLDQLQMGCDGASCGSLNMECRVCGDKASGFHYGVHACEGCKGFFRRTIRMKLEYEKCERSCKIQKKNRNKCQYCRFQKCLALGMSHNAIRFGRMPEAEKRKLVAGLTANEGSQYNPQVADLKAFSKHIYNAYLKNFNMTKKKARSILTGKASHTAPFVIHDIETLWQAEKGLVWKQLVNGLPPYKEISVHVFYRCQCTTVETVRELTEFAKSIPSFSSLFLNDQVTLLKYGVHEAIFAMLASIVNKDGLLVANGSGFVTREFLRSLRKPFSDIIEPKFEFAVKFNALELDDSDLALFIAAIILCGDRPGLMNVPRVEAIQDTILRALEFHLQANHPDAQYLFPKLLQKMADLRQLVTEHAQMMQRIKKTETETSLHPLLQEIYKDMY
UniProt P37231: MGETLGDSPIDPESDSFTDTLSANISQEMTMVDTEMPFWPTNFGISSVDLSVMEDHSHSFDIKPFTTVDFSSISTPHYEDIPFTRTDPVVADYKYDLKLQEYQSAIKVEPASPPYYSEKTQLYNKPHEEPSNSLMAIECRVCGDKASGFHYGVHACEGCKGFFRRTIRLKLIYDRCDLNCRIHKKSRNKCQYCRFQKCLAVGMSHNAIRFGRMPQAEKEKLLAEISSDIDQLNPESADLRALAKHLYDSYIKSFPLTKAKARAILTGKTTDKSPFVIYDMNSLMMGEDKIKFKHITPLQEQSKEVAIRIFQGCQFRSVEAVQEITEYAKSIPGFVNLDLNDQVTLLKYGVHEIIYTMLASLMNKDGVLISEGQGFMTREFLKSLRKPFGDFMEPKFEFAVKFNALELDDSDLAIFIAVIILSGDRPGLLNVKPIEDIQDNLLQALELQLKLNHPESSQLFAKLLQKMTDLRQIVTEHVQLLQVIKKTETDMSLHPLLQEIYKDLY
UniProt P19793: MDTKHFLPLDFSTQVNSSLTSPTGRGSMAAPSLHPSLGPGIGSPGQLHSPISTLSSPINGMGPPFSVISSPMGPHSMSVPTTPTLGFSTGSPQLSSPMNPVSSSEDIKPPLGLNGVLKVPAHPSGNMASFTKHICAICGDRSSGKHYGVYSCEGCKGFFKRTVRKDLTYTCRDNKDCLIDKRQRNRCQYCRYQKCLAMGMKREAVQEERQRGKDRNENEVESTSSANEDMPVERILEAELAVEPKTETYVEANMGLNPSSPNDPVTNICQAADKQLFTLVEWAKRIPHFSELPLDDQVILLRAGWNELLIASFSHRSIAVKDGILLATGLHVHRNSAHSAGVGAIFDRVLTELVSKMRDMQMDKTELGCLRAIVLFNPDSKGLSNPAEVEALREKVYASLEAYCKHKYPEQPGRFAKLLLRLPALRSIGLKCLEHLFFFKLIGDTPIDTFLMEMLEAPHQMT
UniProt P10828: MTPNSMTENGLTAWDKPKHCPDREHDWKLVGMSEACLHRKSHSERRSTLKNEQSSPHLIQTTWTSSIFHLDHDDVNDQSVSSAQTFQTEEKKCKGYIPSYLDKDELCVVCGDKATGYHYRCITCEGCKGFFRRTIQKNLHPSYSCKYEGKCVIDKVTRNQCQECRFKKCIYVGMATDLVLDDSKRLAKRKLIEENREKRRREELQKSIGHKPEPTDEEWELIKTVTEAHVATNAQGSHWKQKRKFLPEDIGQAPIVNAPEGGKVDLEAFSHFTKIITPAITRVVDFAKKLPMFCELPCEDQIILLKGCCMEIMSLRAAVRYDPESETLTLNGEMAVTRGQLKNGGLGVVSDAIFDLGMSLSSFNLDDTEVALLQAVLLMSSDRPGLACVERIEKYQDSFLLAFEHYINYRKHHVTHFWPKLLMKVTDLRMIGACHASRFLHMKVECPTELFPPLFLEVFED

Legend:
[1] = MultiTox-Fluor Cytotoxicity Assay - LYMP1-001 - Live Cells (AID 947);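 also: 0% = DMSO only and full inhibition = tetraoctylammonium bromide control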
[2] = MultiTox-Fluor Cytotoxicity Assay - LYMP1-002 - Dead Cells (AID 960); conditions: LYMP1-002 lymphoblastoid cells, dead-cell protease fluorescence; cytotoxicity (dead cells): at 46.1 µM (top of the series); also: nearly all actives have a fitted effect of over 60% in size
How it was run: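 LYMP1-002 cells 2500/well; 5 hr 37 C pre-incubation; compound 16 hr 37 C; MultiTox-Fluor reagent 60 min RT; dead-cell fluor Ex/Em 485/520. Norm. to DMSO (0%) vs 15 uM tetraoctylammonium bromide (100%); Hill AC50.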

[3] = MultiTox-Fluor Cytotoxicity Assay - LYMP1-003 - Dead Cells (AID 961); also: nearly all actives have a fitted effect of over 70% in size
How it was run: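 LYMP1-003 lymphoblastoid, 2500 cells/well, 5 hr settle then 16 hr cpd at 37 C; MultiTox-Fluor reagent 60 min RT; Ex/Em 485/520 dead-cell signal; norm. DMSO = 0%, 15 uM tetraoctylammonium bromide = 100%; Hill AC50.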

[4] = Cell Viability - LYMP2-004 (AID 966); conditions: LYMP2-004 lymphoblastoid cell viability, qHTS; activity change, negative = cytotoxicity: at 92.2 µM (top of the series); also: nearly all actives have a fitted effect of over 65% in size; also: potency is read from the fitted curve at half-maximal effect;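 as to activity change, negative = cytotoxicity: plate controls were DMSO only for no effect and tetraoctylammonium bromide control for full effect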
How it was run: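 Cells seeded 2500/well, rested 5 hr at 37 C, dosed across a concentration series, incubated 24 hr at 37 C, then CellTiter-Glo added for 30 min at room temperature and luminescence read. Hill fitting gave AC50.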

[5] = Cell Viability - LYMP2-012 (AID 982); conditions: LYMP2-012 lymphoblastoid cell viability qHTS; activity change, negative = cytotoxicity: at 92.2 µM (top of the series);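 also: cellular ATP by luciferase luminescence where a drop means cytotoxicity; potency is read from the fitted curve at half-maximal effect; cells exposed to compound for one day before reading; nearly all actives have a fitted effect of over 55% in size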
[6] = molecular target: Peroxisome proliferator-activated receptor delta (Homo sapiens) (UniProt Q03181); assay: qHTS assay for small molecule agonists of peroxisome proliferator-activated receptor delta signaling (AID 588534; calls by dose curve;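 also: 0% = DMSO basal wells and 100% = positive control agonist at 10 µM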); conditions: HEK293T PPARdelta-UAS-bla, beta-lactamase ratio, 18 h; activation: at 76.7 µM (top of the series)
How it was run: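 Fluorescence from CCF4 substrate cleavage by beta-lactamase reporter, read 2 hrs at RT, measured agonist activity. Compounds were tested with 18 hrs exposure at 37 C. Concentration-response data fitted to Hill equation.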

[7] = molecular target: Peroxisome proliferator-activated receptor gamma (Homo sapiens) (UniProt P37231); assay: qHTS assay for small molecule antagonists of peroxisome proliferator-activated receptor gamma signaling (AID 588537; active = well fitted inhibition curve with a large enough effect in the signal ratio, with a control signal flat, not every such curve was filed as active; inconclusive = small, poorly fitted or top-dose-only effect, or effect the other way, or a change in a side signal; the % refers to the signal ratio;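 also: reporter cells co-stimulated with 50 nM rosiglitazone agonist during compound treatment; % of control where 0% means no effect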); conditions: HEK293 PPARg-UAS-bla, beta-lactamase ratio, antagonist mode; activity, negative = inhibition: at 76.8 µM (top of the series)
How it was run: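 Antagonist mode, beta-lactamase reporter in HEK293; charcoal/dextran FBS 1%; 3000 cells/well, 37 C 6-6.5 h; cpd titration + rosiglitazone 50 nM final, 16 h 37 C; CCF4, 2 h RT; 460/530 nm; Hill fit → IC50, efficacy.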

[8] = molecular target: Retinoic acid receptor RXR-alpha (Homo sapiens) (UniProt P19793); assay: qHTS assay for small molecule agonists of retinoid X receptor alpha signaling (AID 588544; calls by dose curve; also: potency is read from the fitted curve at half-maximal effect;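 as to activation: 0% = DMSO basal wells and 100% = reference agonist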); conditions: HEK293T RXRa-UAS-bla, beta-lactamase reporter, 18 h; activation: at 76.7 µM (top of the series) unless noted
[9] = qHTS assay to identify small molecules that stimulate interleukin-8 (IL-8) secretion (AID 651758; active = well fitted activation curve with a large enough effect in the signal ratio; inconclusive = small, poorly fitted or top-dose-only effect, or effect the other way, or a change in a side signal; the % refers to the signal ratio; also: 0% is about no effect); conditions: HTRF ratio (665/615); activation: at 92.2 µM (top of the series)
How it was run: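 Secreted IL-8 measured by TR-FRET sandwich (cryptate and XL665 antibodies) from THP-1 cells exposed to compound overnight (16 hrs, 37 C).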

[10] = molecular target: Peroxisome proliferator-activated receptor delta (Homo sapiens) (UniProt Q03181); assay: qHTS assay for small molecule antagonists of peroxisome proliferator-activated receptor delta signaling (AID 588535; active = well fitted inhibition curve with a large enough effect in the signal ratio, with a control signal flat, not every such curve was filed as active; inconclusive = small, poorly fitted or top-dose-only effect, or effect the other way, or a change in a side signal; inactive = no such curve, though single readings can be large or run the other way; the % refers to the signal ratio; also: potency is read from the fitted curve at half-maximal effect); conditions: HEK293T PPARd-UAS-bla, beta-lactamase FRET ratio, 18 h; activity change, negative = inhibition: at 76.7 µM (top of the series) unless noted
How it was run: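 HEK293T PPAR-delta-UAS-bla cells, 4000/well, 2% charcoal/dextran FBS; 5 h 37 C; cpd titration; 18 h 37 C; CCF4 2 h RT; FI 460/530 nm; Hill fit → IC50, efficacy.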

[11] = molecular target: Thyroid hormone receptor beta (Homo sapiens) (UniProt P10828); assay: qHTS assay for small molecule agonists of thyroid hormone receptor beta signaling (AID 588545; calls by dose curve;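 also: 0% = DMSO only and 100% = 10 nM T3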); conditions: TR-UAS-bla GripTite HEK 293, beta-lactamase ratio, agonist mode, 18 h; activation: at 76.7 µM, percent of T3 response, DMSO as zero
How it was run: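 TR-UAS-bla-GripTite HEK 293 cells in medium with 2% charcoal/dextran FBS, 0.1 mM NEAA and 1 mM sodium pyruvate were treated with titrated compounds for 18 hrs at 37 C. Beta-lactamase reporter was read with CCF4 dye (ex 405, em 460/530 nm); EC50 from Hill fits.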

[12] = qHTS assay for small molecule agonists of the antioxidant response element (ARE) signaling pathway (AID 651741; active = well fitted activation curve with a large enough effect in the signal ratio; inconclusive = small, poorly fitted or top-dose-only effect, or effect the other way, or a change in a side signal; the % refers to the signal ratio; also: % of control where 0% means no effect); conditions: HepG2 ARE-bla reporter, beta-lactamase FRET ratio, 16 h; activation: at 96 µM (top of the series) unless noted
How it was run: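 Quantitative HTS in HepG2 cells stably expressing an ARE-beta-lactamase reporter; 16 h compound exposure at 37 C, followed by 2 h room-temperature incubation with LiveBLAzer B/G FRET substrate and fluorescence measurement.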

[13] = molecular target: Peroxisome proliferator-activated receptor gamma (Homo sapiens) (UniProt P37231); assay: qHTS assay for small molecule agonists of peroxisome proliferator-activated receptor gamma signaling (AID 588536; active = well fitted curve in the direction sought with a large enough effect in the signal ratio, with a control signal flat, not every such curve was filed as active; inconclusive = small, poorly fitted or top-dose-only effect, or effect the other way, or a change in a side signal; inactive = no such curve, though single readings can be large or run the other way; the % refers to the signal ratio;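 also: 0% = DMSO basal wells and 100% = rosiglitazone at 2 µM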); conditions: HEK293 PPARg-UAS-bla, beta-lactamase ratio, 16 h; activation: at 76.7 µM (top of the series), percent of rosiglitazone response, DMSO as zero unless noted
How it was run: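 Test agents, titrated, stimulated HEK293 UAS-bla cells overnight (16 h, 37 C). Substrate CCF4 was then added for two hours at room temperature before fluorescence reading.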

[14] = Cell Viability - LYMP2-001 (AID 921); conditions: LYMP2-001 lymphoblastoid cell viability; activity change, negative = cytotoxic: at 92.2 µM (top of the series); also: potency is read from the fitted curve at half-maximal effect; nearly all actives have a fitted effect of over 70% in size
How it was run: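 CellTiter-Glo luminescence (intracellular ATP) after 24 hr compound exposure at 37 C, 2500 lymphoblastoid cells/well in complete medium. AC50 fitted with standard Hill equation; tetraoctylammonium bromide positive control.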

[15] = Cell Viability - LYMP2-005 (AID 967); also: potency is read from the fitted curve at half-maximal effect
How it was run: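 Steps: seed 2500 LYMP2-005 cells/well, incubate 5 h at 37 C, add compound, incubate 24 h at 37 C, add CellTiter-Glo, wait 30 min at RT, read luminescence. Concentration-response data fitted to Hill equation for AC50.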

[16] = Cell Viability - LYMP2-009 (AID 968); also: potency is read from the fitted curve at half-maximal effect; nearly all actives have a fitted effect of over 55% in size
[17] = Cell Viability - LYMP2-011 (AID 969); also: potency is read from the fitted curve at half-maximal effect; nearly all actives have a fitted effect of over 60% in size
How it was run: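 2500 cells/well, 5 hr 37 C; compound added, 24 hr 37 C; CellTiter-Glo 30 min RT; luminescence. qHTS concentration-response, Hill-equation AC50. Tetraoctylammonium bromide positive control.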

[18] = Cell Viability - LYMP2-015 (AID 971); conditions: LYMP2-015 lymphoblastoid cell viability; activity change, negative = lower viability: at 92.2 µM (top of the series); also: potency is read from the fitted curve at half-maximal effect; nearly all actives have a fitted effect of over 55% in size
How it was run: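 Luminescent ATP read-out (CellTiter-Glo) served as the viability measure after lymphoblastoid cells were exposed to compounds for 24 hours at 37 C. Concentration-response data were fitted with the Hill equation to give AC50.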

[19] = Cell Viability - LYMP2-017 (AID 972); also: potency is read from the fitted curve at half-maximal effect; nearly all actives have a fitted effect of over 55% in size
How it was run: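 2500 cells/well, 5 h 37 C; cpd 24 h 37 C in complete medium; CellTiter-Glo, 30 min RT; luminescence (ATP). AC50 via Hill fit, qHTS.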

[20] = Cell Viability - LYMP2-019 (AID 973)
How it was run: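 Luminescent ATP read-out (CellTiter-Glo, 30 min room temperature) served as the viability measure after 24 hr treatment of lymphoblastoid cells at 37 C. Concentration-response data were fitted to the Hill equation for AC50.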

[21] = Cell Viability - LYMP2-021 (AID 974)
How it was run: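 Plate 2500 lymphoblastoid cells per well and incubate 5 hr at 37 C. Add compounds over a concentration range and incubate 24 hr at 37 C. Add CellTiter-Glo, wait 30 min at room temperature, read luminescence.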

[22] = Cell Viability - LYMP2-007 (AID 979); conditions: LYMP2-007 lymphoblastoid cell viability; activity change, negative = cytotoxicity: at 92.2 µM (top of the series);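 also: potency is read from the fitted curve at half-maximal effect; cells exposed to compound for 24 h before reading; nearly all actives have a fitted effect of over 60% in size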
How it was run: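 Luminescent ATP signal (CellTiter-Glo) serves as the viability read-out after 24 hr compound treatment of lymphoblastoid cells in complete medium at 37 C. Concentration-response data were fitted to the Hill equation to give AC50 values.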

[23] = Cell Viability - LYMP2-010 (AID 981)
How it was run: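 Luminescent ATP signal (CellTiter-Glo) served as the viability read-out. Cells of the human lymphoblastoid line were treated with compound over a concentration range for 24 hours at 37 C, and AC50 values came from Hill-equation modeling.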

[24] = Cell Viability - LYMP2-018 (AID 985); also: potency is read from the fitted curve at half-maximal effect; nearly all actives have a fitted effect of over 50% in size
How it was run: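 Luminescent ATP signal (CellTiter-Glo, read after 30 min at room temperature) reports viable cells after 24 hr compound treatment at 37 C. Concentration-response data were fitted to the standard Hill equation for AC50.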

[25] = Cell Viability - LYMP2-022 (AID 987)
How it was run: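 qHTS: human lymphoblastoid cells 2500/well; 5 hr 37 C; cpd added; 24 hr 37 C; CellTiter-Glo, 30 min RT; luminescence. AC50 via Hill fit; tetraoctylammonium bromide positive ctrl.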

[26] = Cell Viability - LYMP2-024 (AID 988); also: potency is read from the fitted curve at half-maximal effect; nearly all actives have a fitted effect of over 60% in size
How it was run: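 Steps: seed 2500 cells/well, 5 hr 37 C; add compound, 24 hr 37 C; add CellTiter-Glo, 30 min room temperature; read luminescence. AC50 derived by Hill modelling of concentration-dependent ATP loss.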

[27] = qHTS assay for small molecule activators of the nuclear factor-kappa B (NF-kB) signaling pathway (AID 651749; active = well fitted activation curve with a large enough effect in the signal ratio; inconclusive = small, poorly fitted or top-dose-only effect, or a change in a side signal; the % refers to the signal ratio; also: potency is read from the fitted curve at half-maximal effect); conditions: NF-kB-bla ME-180 cells, beta-lactamase FRET ratio, 16 h; activation: stronger effect = higher value
How it was run: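 Readout: beta-lactamase reporter driven by an NF-kB response element, detected fluorescently as loss of FRET. Cells were the ME-180 line, treated 16 hr at 37C with pin-transferred compound.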

O=[N+]([O-])c1cc(Cl)c(Cl)cc1Cl
inactive: Potency [1] | Potency [2] | Potency [3] | Potency [4] | Potency [6] | Potency [7] | Potency [8] | Potency [9]
inconclusive: Potency [5] 79.4 µM [cytotoxic, single point]

CC(C)(C)C(=O)[C@H](Oc1ccc(Cl)cc1)n1cncn1
inactive: Potency [7] | activation [11] 8.87%
inconclusive: activity change, negative = inhibition [10] 16.7% | activation [12] 9.42%

C[C@H]1O[C@H](OC2[C@@H](O)[C@@H](O)C(O)[C@H](O)[C@H]2O)[C@@H](N)C[C@@H]1N=C(N)C(=O)O (stereo not given in full)
inactive: Potency [10] | Potency [13]

COCC(=O)N(c1c(C)cccc1C)[C@H](C)C(=O)OC
inactive: Potency [12]
inconclusive: Potency [10] 1 µM [activator, full curve, poor fit]

Nc1ccc(-c2ccc(N)c(O)c2)cc1O
active: Potency [15] 50.1 µM
inconclusive: Potency [14] 50.1 µM [cytotoxic, partial curve, poor fit] | Potency [4] 39.8 µM [cytotoxic, partial curve, poor fit] | Potency [16] 63.1 µM [cytotoxic, single point] | Potency [17] 100 µM [cytotoxic, single point] | Potency [18] 50.1 µM [cytotoxic, partial curve, poor fit] | Potency [19] 50.1 µM [cytotoxic, partial curve, poor fit] | Potency [20] 50.1 µM [cytotoxic, partial curve, poor fit] | Potency [21] 50.1 µM [cytotoxic, partial curve] | Potency [22] 50.1 µM [cytotoxic, partial curve] | Potency [23] 50.1 µM [cytotoxic, partial curve, poor fit] | Potency [5] 50.1 µM [cytotoxic, partial curve, poor fit] | Potency [24] 50.1 µM [cytotoxic, partial curve] | Potency [25] 50.1 µM [cytotoxic, partial curve, poor fit] | Potency [26] 50.1 µM [cytotoxic, partial curve] | Potency [10] 31.6 µM [inhibitor, full curve, poor fit] | Potency [8] 56.2 µM [side channel, falling, partial curve, poor fit] | Potency [27] 15.8 µM [side channel, falling, partial curve, poor fit]
